The other results are listed elsewhere or left out.

Protein sequences, listed by entry. Tags and fused reporters are not part of them. Lines headed by an entry give the natural chain unless they say otherwise; changes in a name come on top.
UniProt Q53H96: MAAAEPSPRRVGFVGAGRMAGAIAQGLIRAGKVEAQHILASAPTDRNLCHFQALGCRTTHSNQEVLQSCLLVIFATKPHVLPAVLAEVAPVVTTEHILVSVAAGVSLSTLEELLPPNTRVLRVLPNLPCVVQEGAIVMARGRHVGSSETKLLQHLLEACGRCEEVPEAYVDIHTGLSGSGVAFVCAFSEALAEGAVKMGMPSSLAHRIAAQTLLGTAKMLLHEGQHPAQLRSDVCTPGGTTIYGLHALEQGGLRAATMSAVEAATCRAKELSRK
UniProt Q9Y606: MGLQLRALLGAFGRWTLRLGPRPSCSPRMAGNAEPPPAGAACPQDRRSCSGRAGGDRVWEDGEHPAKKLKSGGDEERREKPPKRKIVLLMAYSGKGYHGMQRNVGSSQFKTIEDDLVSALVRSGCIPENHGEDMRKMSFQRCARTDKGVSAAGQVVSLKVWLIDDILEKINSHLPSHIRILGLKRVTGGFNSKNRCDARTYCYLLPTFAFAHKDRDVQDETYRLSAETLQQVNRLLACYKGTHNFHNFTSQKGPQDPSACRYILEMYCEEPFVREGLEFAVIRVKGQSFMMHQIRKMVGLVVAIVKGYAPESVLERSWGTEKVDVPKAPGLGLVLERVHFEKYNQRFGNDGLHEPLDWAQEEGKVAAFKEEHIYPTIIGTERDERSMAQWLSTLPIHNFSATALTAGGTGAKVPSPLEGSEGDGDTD
UniProt Q5JS54: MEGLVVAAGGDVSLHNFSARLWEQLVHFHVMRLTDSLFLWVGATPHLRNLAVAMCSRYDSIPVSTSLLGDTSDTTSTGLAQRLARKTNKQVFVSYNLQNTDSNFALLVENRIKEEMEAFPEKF
UniProt Q6ZRP7: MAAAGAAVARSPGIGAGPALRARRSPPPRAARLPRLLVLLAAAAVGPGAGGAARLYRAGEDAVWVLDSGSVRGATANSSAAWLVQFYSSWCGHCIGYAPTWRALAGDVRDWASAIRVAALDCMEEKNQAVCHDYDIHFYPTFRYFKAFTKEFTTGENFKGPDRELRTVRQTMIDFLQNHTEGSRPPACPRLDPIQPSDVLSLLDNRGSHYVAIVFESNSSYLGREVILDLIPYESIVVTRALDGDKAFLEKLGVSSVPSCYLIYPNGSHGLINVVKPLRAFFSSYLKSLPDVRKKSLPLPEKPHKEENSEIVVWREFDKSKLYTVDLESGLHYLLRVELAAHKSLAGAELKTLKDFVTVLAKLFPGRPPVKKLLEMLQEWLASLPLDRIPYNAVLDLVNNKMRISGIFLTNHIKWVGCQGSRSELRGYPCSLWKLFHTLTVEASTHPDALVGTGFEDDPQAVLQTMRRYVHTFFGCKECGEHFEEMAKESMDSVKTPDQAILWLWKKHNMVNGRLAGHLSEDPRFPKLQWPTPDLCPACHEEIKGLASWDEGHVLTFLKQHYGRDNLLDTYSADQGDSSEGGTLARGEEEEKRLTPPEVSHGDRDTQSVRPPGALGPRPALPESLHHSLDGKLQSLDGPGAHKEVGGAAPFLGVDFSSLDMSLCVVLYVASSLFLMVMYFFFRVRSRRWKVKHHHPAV
UniProt P47897: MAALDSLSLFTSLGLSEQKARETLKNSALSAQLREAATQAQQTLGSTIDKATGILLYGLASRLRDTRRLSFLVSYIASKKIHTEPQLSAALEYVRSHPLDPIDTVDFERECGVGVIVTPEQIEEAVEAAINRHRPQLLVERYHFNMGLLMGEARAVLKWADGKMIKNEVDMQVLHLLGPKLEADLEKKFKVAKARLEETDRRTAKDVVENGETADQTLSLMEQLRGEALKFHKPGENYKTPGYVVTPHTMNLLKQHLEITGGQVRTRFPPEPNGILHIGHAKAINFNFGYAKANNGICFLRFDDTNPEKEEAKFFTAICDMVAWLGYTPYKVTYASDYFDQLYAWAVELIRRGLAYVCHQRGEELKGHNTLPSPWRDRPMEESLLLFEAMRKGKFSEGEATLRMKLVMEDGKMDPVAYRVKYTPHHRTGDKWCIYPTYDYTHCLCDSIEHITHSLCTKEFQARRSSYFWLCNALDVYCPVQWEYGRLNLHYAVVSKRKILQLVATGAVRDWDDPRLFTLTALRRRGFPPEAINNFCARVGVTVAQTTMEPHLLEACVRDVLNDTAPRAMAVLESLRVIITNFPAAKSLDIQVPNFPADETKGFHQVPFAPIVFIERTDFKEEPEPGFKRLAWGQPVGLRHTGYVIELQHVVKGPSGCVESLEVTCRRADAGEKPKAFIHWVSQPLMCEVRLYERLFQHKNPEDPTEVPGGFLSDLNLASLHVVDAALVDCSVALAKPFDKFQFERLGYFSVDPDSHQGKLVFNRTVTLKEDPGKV
UniProt Q96C36: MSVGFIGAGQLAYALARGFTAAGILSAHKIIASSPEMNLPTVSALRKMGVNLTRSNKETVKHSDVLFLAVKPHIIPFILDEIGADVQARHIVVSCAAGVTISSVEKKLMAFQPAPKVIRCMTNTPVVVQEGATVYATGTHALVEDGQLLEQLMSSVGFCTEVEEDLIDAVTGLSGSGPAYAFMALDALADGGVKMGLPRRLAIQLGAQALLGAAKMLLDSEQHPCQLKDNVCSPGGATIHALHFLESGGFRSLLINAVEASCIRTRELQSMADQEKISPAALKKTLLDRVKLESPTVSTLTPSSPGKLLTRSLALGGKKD
UniProt Q7Z6K3: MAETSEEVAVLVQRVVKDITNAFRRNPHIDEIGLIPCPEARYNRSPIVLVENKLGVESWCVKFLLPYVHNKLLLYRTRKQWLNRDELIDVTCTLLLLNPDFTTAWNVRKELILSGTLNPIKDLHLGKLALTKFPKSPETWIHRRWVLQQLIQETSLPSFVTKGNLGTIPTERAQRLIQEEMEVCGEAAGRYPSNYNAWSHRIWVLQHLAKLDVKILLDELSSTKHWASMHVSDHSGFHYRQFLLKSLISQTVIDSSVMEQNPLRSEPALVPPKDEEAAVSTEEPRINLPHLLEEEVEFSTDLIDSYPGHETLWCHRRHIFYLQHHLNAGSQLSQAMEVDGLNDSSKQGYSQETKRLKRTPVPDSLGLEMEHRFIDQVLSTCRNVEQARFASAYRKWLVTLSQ
UniProt Q96BW5: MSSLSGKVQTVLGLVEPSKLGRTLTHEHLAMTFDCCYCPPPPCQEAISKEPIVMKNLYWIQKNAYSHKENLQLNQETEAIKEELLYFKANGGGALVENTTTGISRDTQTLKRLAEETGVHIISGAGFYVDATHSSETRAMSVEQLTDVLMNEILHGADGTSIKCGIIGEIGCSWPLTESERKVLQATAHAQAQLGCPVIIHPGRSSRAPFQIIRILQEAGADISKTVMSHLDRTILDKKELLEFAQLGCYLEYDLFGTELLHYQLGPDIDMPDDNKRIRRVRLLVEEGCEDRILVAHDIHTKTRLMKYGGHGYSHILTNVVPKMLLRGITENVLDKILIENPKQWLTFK
UniProt P49720: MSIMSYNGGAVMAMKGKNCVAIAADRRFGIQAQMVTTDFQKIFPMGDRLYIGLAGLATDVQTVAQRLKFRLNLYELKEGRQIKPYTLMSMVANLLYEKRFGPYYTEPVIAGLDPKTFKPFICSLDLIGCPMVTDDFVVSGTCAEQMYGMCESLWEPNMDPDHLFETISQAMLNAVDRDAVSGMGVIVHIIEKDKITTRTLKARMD
UniProt Q9H974: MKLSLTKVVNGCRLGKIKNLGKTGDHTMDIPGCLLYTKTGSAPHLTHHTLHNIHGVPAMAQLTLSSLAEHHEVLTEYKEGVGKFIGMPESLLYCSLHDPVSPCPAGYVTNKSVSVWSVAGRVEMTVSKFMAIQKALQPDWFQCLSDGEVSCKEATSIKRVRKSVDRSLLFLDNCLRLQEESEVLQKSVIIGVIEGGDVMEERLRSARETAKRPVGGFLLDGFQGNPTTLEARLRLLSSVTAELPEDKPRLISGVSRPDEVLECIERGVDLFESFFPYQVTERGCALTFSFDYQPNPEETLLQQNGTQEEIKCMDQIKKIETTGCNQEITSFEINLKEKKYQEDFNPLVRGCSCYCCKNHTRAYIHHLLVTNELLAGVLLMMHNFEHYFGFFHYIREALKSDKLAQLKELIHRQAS
UniProt P26599: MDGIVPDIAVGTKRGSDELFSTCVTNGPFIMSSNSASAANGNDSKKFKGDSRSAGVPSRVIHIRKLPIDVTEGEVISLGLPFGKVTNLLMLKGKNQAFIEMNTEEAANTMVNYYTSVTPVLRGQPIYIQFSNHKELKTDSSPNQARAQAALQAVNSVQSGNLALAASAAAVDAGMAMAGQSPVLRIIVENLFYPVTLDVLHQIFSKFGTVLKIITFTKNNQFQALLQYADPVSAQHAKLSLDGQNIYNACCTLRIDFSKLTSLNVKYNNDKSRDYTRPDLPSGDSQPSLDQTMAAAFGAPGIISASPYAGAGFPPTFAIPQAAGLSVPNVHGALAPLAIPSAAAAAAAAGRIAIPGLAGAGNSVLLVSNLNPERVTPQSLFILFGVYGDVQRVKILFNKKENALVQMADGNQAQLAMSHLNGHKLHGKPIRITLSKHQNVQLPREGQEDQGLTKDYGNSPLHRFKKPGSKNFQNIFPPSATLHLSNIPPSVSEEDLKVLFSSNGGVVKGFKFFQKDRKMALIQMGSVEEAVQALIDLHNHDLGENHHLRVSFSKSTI
UniProt Q9BRP8: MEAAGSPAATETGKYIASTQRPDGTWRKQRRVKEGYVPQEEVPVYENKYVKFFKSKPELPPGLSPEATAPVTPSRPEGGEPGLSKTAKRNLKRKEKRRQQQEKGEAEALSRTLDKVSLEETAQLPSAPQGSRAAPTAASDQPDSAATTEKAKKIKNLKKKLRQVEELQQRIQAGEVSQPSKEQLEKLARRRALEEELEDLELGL
UniProt O14818: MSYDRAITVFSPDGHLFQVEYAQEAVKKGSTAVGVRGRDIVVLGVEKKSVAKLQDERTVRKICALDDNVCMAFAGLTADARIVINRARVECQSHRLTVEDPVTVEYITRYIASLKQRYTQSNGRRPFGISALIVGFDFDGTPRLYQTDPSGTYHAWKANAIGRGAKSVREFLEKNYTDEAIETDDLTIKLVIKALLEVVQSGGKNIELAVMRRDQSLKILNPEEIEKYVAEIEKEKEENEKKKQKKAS
UniProt Q9Y6I8: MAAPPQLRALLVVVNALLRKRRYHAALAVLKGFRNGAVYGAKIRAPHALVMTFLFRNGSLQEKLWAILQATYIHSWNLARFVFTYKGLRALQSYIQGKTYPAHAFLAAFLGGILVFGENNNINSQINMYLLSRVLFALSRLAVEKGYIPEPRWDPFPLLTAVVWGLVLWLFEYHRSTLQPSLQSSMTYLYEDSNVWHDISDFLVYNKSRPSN
UniProt Q8N0Z8: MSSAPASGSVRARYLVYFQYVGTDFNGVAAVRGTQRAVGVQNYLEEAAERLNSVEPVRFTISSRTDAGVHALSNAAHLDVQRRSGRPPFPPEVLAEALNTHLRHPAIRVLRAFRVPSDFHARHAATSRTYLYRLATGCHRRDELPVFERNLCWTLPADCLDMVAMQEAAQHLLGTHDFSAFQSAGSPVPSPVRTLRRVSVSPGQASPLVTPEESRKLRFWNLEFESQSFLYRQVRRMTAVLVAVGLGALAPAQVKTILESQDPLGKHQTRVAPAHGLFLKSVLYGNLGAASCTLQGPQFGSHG
UniProt O00391: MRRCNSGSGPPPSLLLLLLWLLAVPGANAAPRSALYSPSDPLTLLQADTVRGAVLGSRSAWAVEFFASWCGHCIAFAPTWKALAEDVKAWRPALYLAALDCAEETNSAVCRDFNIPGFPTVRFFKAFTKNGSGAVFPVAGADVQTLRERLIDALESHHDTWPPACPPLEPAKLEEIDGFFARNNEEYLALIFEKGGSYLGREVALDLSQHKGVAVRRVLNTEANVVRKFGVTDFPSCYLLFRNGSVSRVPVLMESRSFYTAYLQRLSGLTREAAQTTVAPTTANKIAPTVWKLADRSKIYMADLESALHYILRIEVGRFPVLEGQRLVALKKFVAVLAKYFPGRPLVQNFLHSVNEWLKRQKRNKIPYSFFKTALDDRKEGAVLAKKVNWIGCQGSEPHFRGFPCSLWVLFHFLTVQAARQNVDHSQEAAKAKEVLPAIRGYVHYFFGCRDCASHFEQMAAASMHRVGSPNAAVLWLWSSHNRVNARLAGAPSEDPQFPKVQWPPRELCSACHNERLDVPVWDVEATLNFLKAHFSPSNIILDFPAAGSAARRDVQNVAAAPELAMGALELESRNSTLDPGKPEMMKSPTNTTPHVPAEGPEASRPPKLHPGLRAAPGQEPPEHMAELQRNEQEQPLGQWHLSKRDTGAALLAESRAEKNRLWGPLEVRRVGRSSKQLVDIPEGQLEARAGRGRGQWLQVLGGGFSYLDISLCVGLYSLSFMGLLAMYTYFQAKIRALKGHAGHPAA
UniProt Q15274: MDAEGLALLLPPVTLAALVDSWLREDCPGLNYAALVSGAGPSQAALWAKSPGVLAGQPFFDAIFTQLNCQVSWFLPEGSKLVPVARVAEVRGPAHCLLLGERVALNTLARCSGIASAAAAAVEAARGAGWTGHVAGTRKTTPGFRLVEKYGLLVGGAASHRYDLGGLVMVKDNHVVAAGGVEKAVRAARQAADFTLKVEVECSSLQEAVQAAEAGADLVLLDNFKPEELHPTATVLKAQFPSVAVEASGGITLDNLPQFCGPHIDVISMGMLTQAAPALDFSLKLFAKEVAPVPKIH

Compound in the assay: c1cn2cc(-c3ccc4cn[nH]c4c3)nc(Nc3ccc(N4CCOCC4)cc3)c2n1 [entospletinib]
Kind of assay: log2 fold change, soluble protein after heating vs DMSO (PISA); higher = thermal stabilisation; K562 cells, 10 uM, 30 min; active = over 0.2 and 3.5 SD of the protein, either way, in both replicates (recomputed). In a few lines:
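Thermal stability values are relative to control samples and come from duplicates. They are expressed as log2 fold changes. For measurement, K562 cells (2×10^6 cells/mL) received 10 μM compound for 30 min, and aliquots were heated for 3 min over 48°C-58°C, pooled, and extracted at 4°C in PBS with 0.5% NP-40. Soluble protein, the supernatant after 21,000xg for 90 min, was quantified by TMTpro 16plex LC-MS/MS with equalised channel sums.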
PSMB5 isoform 3 (UniProt P28074): the log2 fold change is inactive: 0.028.
Turning to PYCR3 (UniProt Q53H96), the log2 fold change is inactive: -0.008.
As for PSMA5 (UniProt P28066), the figure is inactive: 0.017; as for PUS1 (UniProt Q9Y606), inactive: 0.478.
Turning to PSMG4 isoform 2 (UniProt Q5JS54), the log2 fold change was inactive: 0.005.
For QSOX2 (UniProt Q6ZRP7), the log2 fold change is inactive: -0.072.
Take PURB (UniProt Q96QR8): the log2 fold change is inactive: 0.191.
PTGS1 isoform 6 (UniProt P23219): the log2 fold change is inactive: -0.068.
As for QARS (UniProt P47897), the figure is inactive: 0.165; as for PYCR2 (UniProt Q96C36), inactive: 0.069.
As for PTAR1 (UniProt Q7Z6K3), the figure is inactive: 0.082.
In the case of PTER (UniProt Q96BW5), the log2 fold change was inactive: 0.013.
Take PSMB3 (UniProt P49720): the log2 fold change is inactive: 0.017.
As for PTPN18 (UniProt Q99952), the figure is inactive: 0.001; as for PSMA8 (UniProt Q8TAA3), inactive: 0.04; as for QTRT2 isoform 4 (UniProt Q9H974), inactive: 0.019.
Consider PTBP1 (UniProt P26599), for which the log2 fold change was inactive: 0.062.
Consider PSMB7 (UniProt Q99436), for which the log2 fold change is inactive: 0.024.
PYM1 (UniProt Q9BRP8): the log2 fold change is inactive: 0.018.
As for PSMA7 (UniProt O14818), the figure is inactive: 0.013; as for PXMP4 (UniProt Q9Y6I8), inactive: -0.025.
Take PSME3 isoform 2 (UniProt P61289): the log2 fold change is inactive: 0.011.
For the target PTPN2 (UniProt P17706), the log2 fold change is inactive: -0.004.
As for PSAT1 (UniProt Q9Y617), the figure is inactive: -0.019; as for PUM2 (UniProt Q8TB72), inactive: 0.05; as for PRXL2A (UniProt Q9BRX8), inactive: -0.193.
Consider PUSL1 (UniProt Q8N0Z8), for which the log2 fold change was inactive: -0.012.
Regarding PSTPIP2 (UniProt Q9H939), the log2 fold change was inactive: 0.032.
QSOX1 (UniProt O00391): the log2 fold change is inactive: 0.044.
As for PSMD4 (UniProt Q5VWC4), the figure is inactive: -0.257.
As for QPRT (UniProt Q15274), the figure is inactive: -0.003.
With PYURF (UniProt Q96I23), the log2 fold change is inactive: -0.021.

The record behind these values is the supplement of paper PMC10849652.
